Laboratory results reported in paper PMC13470446.
These are yes or no findings as the source states them, for the method shown. Binding calls can cover weak binding; strength is not graded here.

Target: microtubule polymers
Experiment: co-sedimentation; microtubule pelleting assay; fraction of microtubule-bound Smc5 plotted against microtubule concentration, Kd by curve fitting to a hyperbola; 3 independent experiments; both purified

B1: Smc5 hinge domain (residues 215–885) (domain or fragment, UniProt Q08204 215-885)
chain: LRELQGNEQSLQKDLDFKKAKIVHLRQESDKLRKSVESLRDFQNKKGEIELHSQLLPYVKVKDHKEKLNIYKEEYERAKANLRAILKDKKPFANTKKTLENQVEELTEKCSLKTDEFLKAKEKINEIFEKLNTIRDEVIKKKNQNEYYRGRTKKLQATIISTKEDFLRSQEILAQTHLPEKSVFEDIDIKRKEIINKEGEIRDLISEIDAKANAINHEMRSIQRQAESKTKSLTTTDKIGILNQDQDLKEVRDAVLMVREHPEMKDKILEPPIMTVSAINAQFAAYLAQCVDYNTSKALTVVDSDSYKLFANPILDKFKVNLRELSSADTTPPVPAETVRDLGFEGYLSDFITGDKRVMKMLCQTSKIHTIPVSRRELTPAQIKKLITPRPNGKILFKRIIHGNRLVDIKQSAYGSKQVFPTDVSIKQTNFYQGSIMSNEQKIRIENEIINLKNEYNDRKSTLDALSNQKSGYRHELSELASKNDDINREAHQLNEIRKKYTMRKSTIETLREKLDQLKREARKDVSQKIKDIDDQIQQLLLKQRHLLSKMASSMKSLKNCQKELISTQILQFEAQNMDVSMNDVIGFFNEREADLKSQYEDKKKFVKEMRDTPEFQSWMREIRSYDQDTKEKLNKVAEKYEEEGNFNLSFVQDVLDKLESEIAMVNHDES
Question: With B1 as the binder, how does the binding read?
Answer: binds
